About 5,400 (1.8%) of roughly 300,000 compounds were called active. The inconclusive results got no clear call from the source; some entries with a clear call stand among them for comparison. Calls come from the whole dose curve; tested in HEK293 cells. Potencies beside an inconclusive call are fits to weak or partial responses and may not hold up.
Test: qHTS for inhibitors of binding or entry into cells for Marburg Virus
Settings: Marburg virus pseudotyped entry inhibition, cell reporter; series mostly up to 37.8 µM
Potency is the fitted concentration of half-maximal effect.

SMILES | Potency
CC(C)CN(Cc1cc2ccccc2[nH]c1=O)C(=O)c1cccnc1 | inactive
CCOc1cc2[nH]c(=O)n(CCCC(=O)NCc3ccc(OC)cc3)c(=O)c2cc1OCC | inconclusive: 29.1 µM [inhibitor, single point]
COc1ccc(-c2cn3c(n2)sc2cc(C(=O)Nc4ccc(F)cc4Cl)ccc23)cc1 | inconclusive: 5.01 µM [activator, full curve, poor fit]
COC(=O)c1cccc(NC(=S)NCc2ccc(Cl)cc2)c1 | inactive
O=C(CCc1nnc(-c2ccc3c(c2)OCO3)o1)NC(c1ccccn1)C(F)(F)F (configuration not stated) | inactive
COc1ccc(C(=O)O)cc1NCc1ccc(C)s1 | inconclusive: 1.78 µM [inhibitor, partial curve, poor fit]
Cc1ccc2nc(SCC(=O)Nc3ccc4c(c3)CCC4)[nH]c2c1 | inconclusive: 8.91 µM [activator, partial curve, poor fit]
COC(=O)c1c(-c2cccs2)csc1NC(=O)c1cc(OC)c(OC)c(OC)c1 | inconclusive: 2.51 µM [inhibitor, partial curve, poor fit]
CCOc1ccc(OCC)c(NC(=O)c2csc3c2CCCC3)c1 | inactive
O=C(Nc1ccccn1)N1CCOCC1 | inconclusive: 20.6 µM [activator, single point]
O=C(NC(=Nc1ccccc1)N1CCOCC1)Nc1ccccc1 | inactive
O=C(NCc1cccnc1)C1CCN(C(=O)c2ccc(Cl)cc2Cl)CC1 | inactive
CN1CCC(n2[nH]c(-c3ccccc3)c(Cc3ccccc3)c2=O)CC1 | inconclusive: 10 µM [inhibitor, partial curve, poor fit]
COc1ccc(C(=O)O/N=C(\N)c2ccccc2Cl)cc1OC | active: 11.2 µM
O=c1c2ccccc2c(-c2ccc(Cl)cc2)nn1-c1ccccc1 | inactive
COc1ccc(NC(=O)C(NC(=O)c2ccc(=O)[nH]c2)c2ccc(C)cc2)cc1 (configuration not stated) | inconclusive: 5.62 µM [inhibitor, single point]
CCCc1nc(SCc2ccccc2Cl)n[nH]1 | inactive
CC1CCCCN1C(=O)COC(=O)c1cccc(NS(=O)(=O)c2ccccc2)c1 (configuration not stated) | inconclusive: 35.5 µM [inhibitor, single point]
CCOC(=O)C(=CNc1ccc(NC2=NCC(C)S2)cc1)C(=O)OCC (configuration not stated) | inconclusive: 0.082 µM [inhibitor, full curve, poor fit]
CC(c1ccccc1)N1C(=O)c2ccccc2C1(O)Cc1ccccc1 (configuration not stated) | inconclusive: 35.5 µM [inhibitor, single point]
CN(C)CCOc1ccccc1Cc1ccccc1 | inconclusive: 29.1 µM [inhibitor, single point]
Cc1nc(NC(=O)c2cncc(Br)c2)ccc1Br | inactive
CC(=O)N1c2c(cc(Br)cc2S(=O)(=O)NCc2ccccc2Cl)CC1C (configuration not stated) | inactive
Cc1noc(C)c1COc1ccc(C(=O)OCC(=O)OC(C)(C)C)cc1 | inconclusive: 7.94 µM [inhibitor, single point]

SMILES | Potency
Cc1c(C#N)c(=O)oc2ccc3ccccc3c12 | inconclusive: 3.66 µM [activator, partial curve, poor fit]
CCOc1ccc(/C=C/C(=O)Oc2ccccc2)cc1 | inconclusive: 7.94 µM [activator, partial curve, poor fit]
CCCCCC(=O)NNC1=NCC(Cc2ccccc2)S1 (configuration not stated) | inactive
O=C(NCCc1ccccc1)C(=O)NCC1OCCN1S(=O)(=O)c1ccc([N+](=O)[O-])cc1 (configuration not stated) | inconclusive: 35.5 µM [inhibitor, single point]
CCn1cc(C(=O)N2CCCCC2)c2ccccc21 | inconclusive: 6.31 µM [inhibitor, single point]
Cc1ccc(Cn2c(=O)n(-c3ccc(C)c(C)c3)c(=O)c3c(C)c(C)sc32)cc1 | inactive
O=C(CSc1nnc(-c2ccncc2)n1-c1ccc(F)cc1)NC(=O)NCc1ccco1 | inactive
COc1ccc(N(CC(=O)NC2CC3CCC2C3)S(=O)(=O)c2ccccc2)cc1Cl (configuration not stated) | inconclusive: 14.1 µM [inhibitor, single point]
CCOc1ccc(NC(=O)Cn2cc(C(=O)c3ccccc3)c(=O)c3cc4c(cc32)OCO4)cc1 | inactive
NC(=O)c1nsc(C(=O)N(c2ccccc2)C(C(=O)NCC2CCCO2)c2cccs2)c1N (configuration not stated) | inconclusive: 1.83 µM [inhibitor, partial curve, poor fit]
Cc1noc(C)c1COc1cccc(C(=O)OCCOc2ccc(F)cc2)c1 | inconclusive: 17.8 µM [inhibitor, single point]
NC(=O)CSc1nnc(CSc2ncccn2)n1-c1ccccc1 | inactive
CCOC(=O)N1CCC(N2C(=O)c3ccc(C(=O)Nc4ccc(F)cc4F)cc3C2=O)CC1 | inconclusive: 0.651 µM [inhibitor, partial curve, poor fit]
Cc1ccc(C(=O)Nc2sc3c(c2C(=O)NCc2ccco2)CCCC3)cc1 | inactive
Cc1nc2ccccc2c2oc(C(=O)N3CCC(N4CCCCC4)CC3)cc12 | inactive
COc1ccc(S(=O)(=O)N2CCCC2)c(Cl)c1Cl | inconclusive: 31.6 µM [inhibitor, single point]
Cc1cc(C)c(Cn2c(=O)n(CCCC(=O)NCc3ccco3)c(=O)c3sccc32)c(C)c1 | inconclusive: 14.6 µM [inhibitor, single point]
O=C1CN(S(=O)(=O)c2ccccc2)c2ccccc2N1 | inconclusive: 6.31 µM [inhibitor, single point]
N/C(=N\OC(=O)CC1CCCCC1)c1ccccc1 | inconclusive: 1 µM [activator, full curve]
COCCCNCCCOc1ccc(C)cc1Br | inconclusive: 29.1 µM [inhibitor, single point]
Cc1ccccc1N(CC(=O)NC1CCCCC1)C(=O)CCCC(=O)Nc1ccccn1 | inactive
COc1ccc2c(CC(=O)N3CCc4ccccc43)coc2c1 | inconclusive: 0.199 µM [activator, full curve, poor fit]
CCCCN(Cc1ccccc1)C1CCN(CCc2ccccc2)CC1 | inconclusive: 10 µM [inhibitor, partial curve, poor fit]

Part of the list above, as comma-separated lines.
SMILES,Potency
Cc1ccc(Cn2c(=O)n(-c3ccc(C)c(C)c3)c(=O)c3c(C)c(C)sc32)cc1,inactive
Cc1noc(C)c1COc1cccc(C(=O)OCCOc2ccc(F)cc2)c1,"inconclusive: 17.8 µM [inhibitor, single point]"
